The source of these data is PubChem BioAssay AID292 (DTP/NCI, 2004).

Molecules are shown by their SMILES. The list does not hold the whole screen: it is rich in T/C values a quarter to a half above the control, in often repeated tests (any T/C) and in doses without a T/C. Other doses and runs of a compound stand elsewhere. T/C gives the treated animals as a percentage of the vehicle group. Some doses have a count of surviving animals in place of a T/C: the source files T/C as zero there, which appears to mark a toxic dose or a test without result, not a measured value. Some doses without a T/C left all or most animals alive at the check, yet need not have been tolerated: survival well below the control is almost never listed, so the zero probably covers shortened survival too. Counts of survivors are from the toxicity check (mostly the fifth day) where no day follows; animals may have died later. Schedules are NCI's codes, read here as Q, the interval in days (D) or hours (H), X, the number of doses. Some doses were run more than once; their values stand side by side, smallest first. For survival time, this PubChem deposit counts one and a half times the control or more as active, and values a quarter to a half above the control carry no call in these data; other NCI protocols may use other cut-offs. Some T/C values carry the count of animals alive at the toxicity check (mostly the fifth day); where none is given, no animal had died by that day.

This assay deals with B6C3F1 mice, ip Sarcoma M5076, median survival T/C. Briefly: NCI In Vivo Anticancer Drug Screen. Data for tumor model Sarcoma M5076 (intraperitoneal) in B6C3F1 mice. As to conditions: T/C endpoint: median survival time, schedule: Q04DX004 (ip), higher T/C = longer survival. The procedure, abridged:
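The readout is a ratio of survival in drug-treated animals to survival in animals given vehicle alone, taken in mice bearing a transplanted tumour line.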

Setting [1] is: dose: 2.0 mg/kg/injection, vehicle: water.
The mark [2] stands for this setting: dose: 400.0 mg/kg/injection, vehicle: saline with Tween-80.
Setting [3] is: dose: 800.0 mg/kg/injection, vehicle: saline with Tween-80.

As for `Cc1ccc(C(=O)NC2C(=O)NC(C(C)C)C(=O)N3CCCC3C(=O)N(C)CC(=O)N(C)C(C(C)C)C(=O)OC2C)c2c1Oc1c(c(C(=O)NC3C(=O)NC(C(C)C)C(=O)N4CCCC4C(=O)N(C)CC(=O)N(C)C(C(C)C)C(=O)OC3C)c3nc(-c4ccccc4)c(=O)oc3c1C)N2` (stereo not given), the T/C (dose: 0.5 mg/kg/injection, vehicle: water) was 127 % of control and the T/C under setting [1] is 127 % of control. Further, the survivor count runs as follows: (dose: 1.0 mg/kg/injection, vehicle: water) 10 of 10 on day 14; under setting [1], 0 of 10 on day 14; (dose: 4.0 mg/kg/injection, vehicle: water) 0 of 10 on day 14 and 2 of 10 on day 14.
For `CCCCCn1c(C)cc(/C=C\c2ccc3cc(C)ccc3[n+]2C)c1C`, the survivor count (dose: 16.0 mg/kg/injection, vehicle: saline) is 5 of 10 on day 14.
Turning to `COc1ccc(Cl)c2c1[nH]c1nc3nc4cc(Cl)ccc4n3nc12`, the survivor count is listed as 10 of 10 on day 14 (dose: 9.37 mg/kg/injection, vehicle: saline with Tween-80); 10 of 10 on day 14 (dose: 18.75 mg/kg/injection, vehicle: saline with Tween-80); 10 of 10 on day 14 (dose: 37.5 mg/kg/injection, vehicle: saline with Tween-80).
`C=CC1(C)CC(=O)C2(O)C(C)(O1)C(OC(C)=O)C(O)C1C(C)(C)CCC(O)C12C` (stereo not given): the survivor count runs as follows: (dose: 64.0 mg/kg/injection, vehicle: DMSO) 2 of 10 on day 14; (dose: 128.0 mg/kg/injection, vehicle: DMSO) 0 of 10 on day 14; (dose: 256.0 mg/kg/injection, vehicle: DMSO) 0 of 10 on day 14.
For the molecule `CNC(=S)C#N`, the survivor count is 5 of 8 on day 14 (dose: 6.25 mg/kg/injection, vehicle: saline + Tween-80 + alcohol); 6 of 10 on day 14 and 10 of 10 on day 14 (dose: 25.0 mg/kg/injection, vehicle: saline + Tween-80 + alcohol); 4 of 10 on day 14 (dose: 50.0 mg/kg/injection, vehicle: saline + Tween-80 + alcohol); 0 of 10 on day 14 (dose: 100.0 mg/kg/injection, vehicle: saline + Tween-80 + alcohol); 0 of 10 on day 14 (dose: 200.0 mg/kg/injection, vehicle: saline + Tween-80 + alcohol); 0 of 10 on day 14 (dose: 400.0 mg/kg/injection, vehicle: saline + Tween-80 + alcohol).
On to `Cn1c(=S)[nH]n(CCOc2ccccc2)c1=S`, for which the survivor count (dose: 500.0 mg/kg/injection, vehicle: saline with Tween-80) is on record as 10 of 10 on day 14.
Consider `COc1cc(N2C(=O)C(=O)C(C(C)=O)C2=O)c(OC)cc1Cl` (stereo not given), for which, where the note is “dose: 800.0 mg/kg/injection, vehicle: Klucel (hydroxypropylcellulose) (HPC)”, the survivor count was 0 of 10 on day 14.
On to `O=c1[nH]c(=O)n(C2CC(O)C(CO)O2)cc1I` (stereo not given), for which the T/C reads like this: under setting [2], 146 % of control; under setting [3], 137 % of control; (dose: 1600.0 mg/kg/injection, vehicle: saline with Tween-80) 137 % of control.
On to `CN(C)CCNC1=C(Cl)C(=O)c2ccccc2C1=O`, for which the survivor count is reported as 2 of 10 on day 14 (dose: 24.0 mg/kg/injection, vehicle: saline); 0 of 10 on day 14 (dose: 25.0 mg/kg/injection, vehicle: saline); 0 of 10 on day 14 (dose: 50.0 mg/kg/injection, vehicle: saline); 0 of 10 on day 14 (dose: 100.0 mg/kg/injection, vehicle: saline); 0 of 10 on day 14 (dose: 200.0 mg/kg/injection, vehicle: saline).
Consider `O=C(Nc1ccccc1CCl)Nc1ccccc1CCl`, for which the T/C under setting [2] is 128 [8 of 10 alive on day 14] and 137 % of control. The survivor count under setting [3] is reported as 0 of 10 on day 14.
Consider `O=C(Nc1ccccc1)c1c(O)[nH]c(=O)[nH]c1=O`, for which, under setting [2], the T/C is 131 [8 of 10 alive on day 14] and 138 % of control [7 of 10 alive on day 14]. The survivor count under setting [3] is 0 of 10 on day 14.
On to `OC1OC2COC(c3ccccc3)OC2C(O)C1O` (stereo not given), for which the survivor count (dose: 1200.0 mg/kg/injection, vehicle: water) was 10 of 10 on day 14.
On to `CCC1(O)C(=O)OCc2c1cc1n(c2=O)Cc2cc3cc(N)ccc3nc2-1` (stereo not given), for which the T/C reads like this: (dose: 3.75 mg/kg/injection, vehicle: suspension in saline) 141 % of control; (dose: 5.0 mg/kg/injection, vehicle: suspension in saline) 126 % of control. Further, the survivor count is 4 of 10 on day 14 (dose: 30.0 mg/kg/injection, vehicle: suspension in saline) and 0 of 10 on day 14 (dose: 60.0 mg/kg/injection, vehicle: suspension in saline).
In the case of `O=c1/c(=C\C=C\c2ccccc2)sc2n1CCN=2`, under setting [3], the survivor count is given as 0 of 10 on day 14.
In the case of `COC(=O)Nc1ccc(Cc2ccc(NC(=O)OC)cc2)cc1`, the T/C was 140 % of control (dose: 300.0 mg/kg/injection, vehicle: saline with Tween-80) and 149 % of control under setting [2]. The survivor count under setting [3] is recorded as 0 of 10 on day 14.
Take `CC(=O)OCc1cc(-c2nc3ccccc3[nH]c2=O)nn1-c1ccc(Cl)cc1`: the survivor count runs as follows: (dose: 50.0 mg/kg/injection, vehicle: distilled water + alcohol) 10 of 10 on day 14; (dose: 100.0 mg/kg/injection, vehicle: distilled water + alcohol) 8 of 10 on day 14 and 10 of 10 on day 14; (dose: 200.0 mg/kg/injection, vehicle: distilled water + alcohol) 5 of 10 on day 14; (dose: 400.0 mg/kg/injection, vehicle: distilled water + alcohol) 10 of 10 on day 14.
